# Some of the results follow.
# Columns and labels:
# Assay in all cases: glycan array binding signal (z-score within array); higher = stronger binding
# Details in all cases: glycan notation: IUPAC condensed, linker removed
# [1] = biological target: Fuc(a1-2)Gal(b1-4)GlcNAc(b1-3)Gal(b1-4)GlcNAc(b1-3)Gal(b1-4)GlcNAc
# Outline: (§1)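 The Consortium for Functional Glycomics database supplied 3228 glycan arrays, of which those lacking an available protein sequence were dropped. The binding signal, a within-array Z-score, was averaged across arrays of the same protein sequence and across linkers. Negative scores can be read as non-binding.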
# [2] = biological target: Fuc(a1-2)Gal(b1-4)GlcNAc(b1-3)GalNAc
# Outline: as §1
# [3] = biological target: Fuc(a1-2)Gal(b1-4)GlcNAc(b1-3)[Fuc(a1-2)Gal(b1-4)GlcNAc(b1-6)]GalNAc
# Outline: as §1
# [4] = biological target: Fuc(a1-2)Gal(b1-4)GlcNAc(b1-3)[Fuc(a1-3)[Gal(b1-4)]GlcNAc(b1-6)]Gal(b1-4)Glc
# Outline: as §1
# [5] = biological target: Fuc(a1-2)Gal(b1-4)GlcNAc(b1-6)GalNAc
# Outline: as §1
# [6] = biological target: Fuc(a1-2)Gal(b1-4)GlcNAc6S
# Outline: as §1
# [7] = biological target: Fuc(a1-2)Gal(b1-4)[Fuc(a1-3)]GlcNAc
# Outline: as §1
# [8] = biological target: Fuc(a1-2)Gal(b1-4)[Fuc(a1-3)]GlcNAc(b1-2)Man(a1-3)[Fuc(a1-2)Gal(b1-4)[Fuc(a1-3)]GlcNAc(b1-2)Man(a1-6)]Man(b1-4)GlcNAc(b1-4)[Fuc(a1-6)]GlcNAc
# Outline: as §1
# [9] = biological target: Fuc(a1-2)Gal(b1-4)[Fuc(a1-3)]GlcNAc(b1-2)[Fuc(a1-2)Gal(b1-4)[Fuc(a1-3)]GlcNAc(b1-4)]Man(a1-3)[Fuc(a1-2)Gal(b1-4)[Fuc(a1-3)]GlcNAc(b1-2)Man(a1-6)]Man(b1-4)GlcNAc(b1-4)GlcNAc
# Outline: as §1
# [10] = biological target: Fuc(a1-2)Gal(b1-4)[Fuc(a1-3)]GlcNAc(b1-3)Gal(b1-4)[Fuc(a1-3)]GlcNAc
# Outline: as §1
# [11] = biological target: Fuc(a1-2)Gal(b1-4)[Fuc(a1-3)]GlcNAc(b1-3)Gal(b1-4)[Fuc(a1-3)]GlcNAc(b1-3)Gal(b1-4)[Fuc(a1-3)]GlcNAc
# Outline: as §1
# [12] = biological target: Fuc(a1-2)Gal(b1-4)[Fuc(a1-3)]GlcNAc(b1-3)GalNAc
# Outline: as §1
# [13] = biological target: Fuc(a1-2)Gal(b1-4)[Fuc(a1-3)]GlcNAc(b1-3)[Neu5Ac(a2-6)Gal(b1-4)GlcNAc(b1-6)]Gal(b1-4)Glc
# Outline: as §1
# [14] = biological target: Fuc(a1-2)Gal3S(b1-4)GlcNAc
# Outline: as §1
# [15] = biological target: Fuc(a1-2)Gal6S(b1-3)GlcNAc
# Outline: as §1
# [16] = biological target: Fuc(a1-2)Gal6S(b1-3)GlcNAc6S
# Outline: as §1
# Fuc(a1-2)Gal6S(b1-4)Glc = biological target: Fuc(a1-2)Gal6S(b1-4)Glc
# Outline: as §1
# [17] = biological target: Fuc(a1-2)Gal6S(b1-4)Glc6S
# Outline: as §1
# Fuc(a1-2)[Gal(a1-3)]Gal = biological target: Fuc(a1-2)[Gal(a1-3)]Gal
# Outline: as §1
# [18] = biological target: Fuc(a1-2)[Gal(a1-3)]Gal(b1-3)GalNAc
# Outline: as §1
# [19] = biological target: Fuc(a1-2)[Gal(a1-3)]Gal(b1-3)GalNAc(b1-3)Gal(a1-4)Gal(b1-4)Glc
# Outline: as §1
# [20] = biological target: Fuc(a1-2)[Gal(a1-3)]Gal(b1-3)GlcNAc
# Outline: as §1
# [21] = biological target: Fuc(a1-2)[Gal(a1-3)]Gal(b1-3)GlcNAc(b1-2)Man(a1-3)[Fuc(a1-2)[Gal(a1-3)]Gal(b1-3)GlcNAc(b1-2)Man(a1-6)]Man(b1-4)GlcNAc(b1-4)GlcNAc
# Outline: as §1
# [22] = biological target: Fuc(a1-2)[Gal(a1-3)]Gal(b1-3)GlcNAc(b1-2)Man(a1-3)[Fuc(a1-2)[Gal(a1-3)]Gal(b1-3)GlcNAc(b1-2)Man(a1-6)]Man(b1-4)GlcNAc(b1-4)[Fuc(a1-6)]GlcNAc
# Outline: as §1
# [23] = biological target: Fuc(a1-2)[Gal(a1-3)]Gal(b1-3)GlcNAc(b1-3)GalNAc
# Outline: as §1
# [24] = biological target: Fuc(a1-2)[Gal(a1-3)]Gal(b1-3)GlcNAc(b1-6)GalNAc
# Outline: as §1
# [25] = biological target: Fuc(a1-2)[Gal(a1-3)]Gal(b1-4)Glc
# Outline: as §1
# [26] = biological target: Fuc(a1-2)[Gal(a1-3)]Gal(b1-4)GlcNAc
# Outline: as §1
# [27] = biological target: Fuc(a1-2)[Gal(a1-3)]Gal(b1-4)GlcNAc(b1-2)Man
# Outline: as §1
# [28] = biological target: Fuc(a1-2)[Gal(a1-3)]Gal(b1-4)GlcNAc(b1-2)Man(a1-3)[Fuc(a1-2)[Gal(a1-3)]Gal(b1-4)GlcNAc(b1-2)Man(a1-6)]Man(b1-4)GlcNAc(b1-4)GlcNAc
# Outline: as §1
binder,measurement,setting,value
Blon0732mut (Bifidobacterium longum) (protein) MPTSEHKADDATRHLTLIPAPVTLEYTHGTALIGPLVTIEDADQSWETLPIEQLSDELRHRYGVTVLRRRTHGTVISLGLDSRLAHDEYTLDVSESEGIRVRGGGESGLRYGLQTLRQIIGQTSRAIPCLHIQDKPAFAVRAYSLDVTRGRVPTMEFLTWFVDQLALYKYNQFQLYVEHAFAFVELSEAWRGTDPLTAADITYLDEYCARRGIELVPSLATFGHMYMNLRTREHRGLGEFPEDADRPFSFIERMEHHTLNAADPKAHDFASRLIEEYAPLFRSKSFNIGGNETFDLGRGRSAQDAPEAGRDELYAGFVRDLCETLARHGRQPMLWADIALESPRTMDLLPGDITMLNWMYEPQIDESKIQTIATQGRRQFVCPAVRAWSRFFPDYAGAWLNTYHMALAGTKYDAEGMVVTDWGDYGHVNDPRLSVPGLCYGAQNAWNPIEIDAHEMNRRISALVYGDESGRIMDCLARIDSDGVSFPWDLAVQVLELEYGSGTGALNMDVAACMERSSGGKLTLDRTLGCDDARRRMLQWNRERIERRRDCDQVLRDCGDAFAGLDKGGLTAEFLSVMLDGQRLFNELGEELLALADGKDVGSGANRLAADLELWFERYRAQWLSVGRHAELARIAHVVWSLADILRRGAL,glycan array binding signal (z-score),[1],-0.036
same,glycan array binding signal (z-score),[2],-0.91
same,glycan array binding signal (z-score),[3],-0.755
same,glycan array binding signal (z-score),[4],-0.394
same,glycan array binding signal (z-score),[5],0.799
same,glycan array binding signal (z-score),[6],-0.652
same,glycan array binding signal (z-score),[7],0.299
same,glycan array binding signal (z-score),[8],-0.365
same,glycan array binding signal (z-score),[9],0.841
same,glycan array binding signal (z-score),[10],0.489
same,glycan array binding signal (z-score),[11],1.37
same,glycan array binding signal (z-score),[12],0.653
same,glycan array binding signal (z-score),[13],0.019
same,glycan array binding signal (z-score),[14],0.631
same,glycan array binding signal (z-score),[15],-0.351
same,glycan array binding signal (z-score),[16],0.966
same,glycan array binding signal (z-score),Fuc(a1-2)Gal6S(b1-4)Glc,0.289
same,glycan array binding signal (z-score),[17],-0.321
same,glycan array binding signal (z-score),Fuc(a1-2)[Gal(a1-3)]Gal,0.175
same,glycan array binding signal (z-score),[18],0.858
same,glycan array binding signal (z-score),[19],-0.88
same,glycan array binding signal (z-score),[20],-0.185
same,glycan array binding signal (z-score),[21],1.83
same,glycan array binding signal (z-score),[22],0.09
same,glycan array binding signal (z-score),[23],-0.623
same,glycan array binding signal (z-score),[24],0.664
same,glycan array binding signal (z-score),[25],-0.847
same,glycan array binding signal (z-score),[26],-0.068
same,glycan array binding signal (z-score),[27],-0.398
same,glycan array binding signal (z-score),[28],-0.864

# Reprinted at random: two records from the list.
binder,measurement,setting,value
Blon0732mut (Bifidobacterium longum) (protein) MPTSEHKADDATRHLTLIPAPVTLEYTHGTALIGPLVTIEDADQSWETLPIEQLSDELRHRYGVTVLRRRTHGTVISLGLDSRLAHDEYTLDVSESEGIRVRGGGESGLRYGLQTLRQIIGQTSRAIPCLHIQDKPAFAVRAYSLDVTRGRVPTMEFLTWFVDQLALYKYNQFQLYVEHAFAFVELSEAWRGTDPLTAADITYLDEYCARRGIELVPSLATFGHMYMNLRTREHRGLGEFPEDADRPFSFIERMEHHTLNAADPKAHDFASRLIEEYAPLFRSKSFNIGGNETFDLGRGRSAQDAPEAGRDELYAGFVRDLCETLARHGRQPMLWADIALESPRTMDLLPGDITMLNWMYEPQIDESKIQTIATQGRRQFVCPAVRAWSRFFPDYAGAWLNTYHMALAGTKYDAEGMVVTDWGDYGHVNDPRLSVPGLCYGAQNAWNPIEIDAHEMNRRISALVYGDESGRIMDCLARIDSDGVSFPWDLAVQVLELEYGSGTGALNMDVAACMERSSGGKLTLDRTLGCDDARRRMLQWNRERIERRRDCDQVLRDCGDAFAGLDKGGLTAEFLSVMLDGQRLFNELGEELLALADGKDVGSGANRLAADLELWFERYRAQWLSVGRHAELARIAHVVWSLADILRRGAL,glycan array binding signal (z-score),[13],0.019
same,glycan array binding signal (z-score),Fuc(a1-2)Gal6S(b1-4)Glc,0.289
